Data as given in PubChem BioAssay AID1259272 (Sanger Institute, 2017).

Assay: 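Kinase knock-downs lethal to colorectal cancer cells, with or without anchor drugs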 (primary screen)
System: SW1116 human colorectal cancer cells
Reagents: siRNA pool against human genes
Challenge: anchor drugs BYL719 (1 µM), cetuximab (5 µg/ml) or trametinib (10 nM), or DMSO vehicle; exposure length not given
Measurement: 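Replicate-averaged viability versus control-pool wells, with a robust z-score for siRNA alone and a per-drug synergy score (BYL719, cetuximab, trametinib)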
Direction: viability z-score, no drug: higher = more cells remaining; strongly negative means essential gene; viability, no drug: higher = more viable cells; synergy score with BYL719: higher = stronger synthetic-lethal synergy with the drug
Rule for the call: 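Called essential if the drug-free knock-down gives a robust viability z-score below -3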
Calls: active = essential (knock-down alone); inactive = no change
The deposit covers 794 reagents; this is an unselected part. 7 of all reagents (0.88%) were called active. 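Essential calls reflect knock-down without drug only, not synergy with drugs; drug exposure length not given.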 Entries without a mark were called inactive. No viability above 1 is reported: the scale is capped. Not all columns of the deposit are shown. Reagent sequences are not shown. The record does not give: the amount of reagent, the time to read-out.

viability z-score, no drug | viability, no drug (fraction of control) | synergy score with BYL719 | Gene | PubChem SID
0.842 | 1 | 0.0483 | CDKN2C (cyclin dependent kinase inhibitor 2C) | SID56478606
0.683 | 0.983 | 0.152 | EPHA4 (EPH receptor A4) | SID152148822
0.842 | 1 | -0.00424 | PANK2 (pantothenate kinase 2) | SID152147442
-0.226 | 0.886 | 0.00278 | PIK3C2G | SID152155956
0.842 | 1 | 0.0764 | PKM (pyruvate kinase M1/2) | SID135621254
0.842 | 1 | 0.0578 | ELF3 (E74 like ETS transcription factor 3) | SID135623079
0.695 | 0.984 | 0.0151 | TSSK1B (testis specific serine kinase 1B) | SID56478967
-2.21 | 0.675 | -0.122 | CDK20 (cyclin dependent kinase 20) | SID152152456
0.00344 | 0.911 | -0.084 | SRP72 (signal recognition particle 72) | SID135623816
0.0186 | 0.912 | 0.0687 | DCLK1 (doublecortin like kinase 1) | SID56478913
0.172 | 0.929 | -0.057 | PLK3 (polo like kinase 3) | SID56478615
0.527 | 0.966 | -0.0839 | HIPK1 (homeodomain interacting protein kinase 1) | SID135620891
-2.73 | 0.62 | -0.104 | CNOT1 (CCR4-NOT transcription complex subunit 1) | SID134319414
0.161 | 0.927 | 0.103 | MPP2 (MAGUK p55 scaffold protein 2) | SID152153278
-0.893 | 0.815 | -0.0517 | NR2F2 (nuclear receptor subfamily 2 group F member 2) | SID134309873
-1.06 | 0.797 | -0.144 | NAGK (N-acetylglucosamine kinase) | SID135621243
0.294 | 0.942 | 0.0256 | LMTK3 (lemur tail kinase 3) | SID152150242
0.769 | 0.992 | 0.133 | KCNH2 (potassium voltage-gated channel subfamily H member 2) | SID135621164
0.842 | 1 | -0.0127 | STK3 (serine/threonine kinase 3) | SID152146922
0.842 | 1 | -0.00711 | MAPK14 (mitogen-activated protein kinase 14) | SID135620690
0.141 | 0.925 | 0.0743 | MAPKAPK3 (MAPK activated protein kinase 3) | SID56478946
0.819 | 0.998 | -0.0128 | TWF2 (twinfilin actin binding protein 2) | SID56478547
-0.16 | 0.893 | -0.084 | TSSK2 (testis specific serine kinase 2) | SID56479050
0.356 | 0.948 | -0.123 | MVK (mevalonate kinase) | SID56479115
-1.67 | 0.733 | -0.193 | PKIA (cAMP-dependent protein kinase inhibitor alpha) | SID56479258
0.194 | 0.931 | -0.0709 | TPD52L3 (TPD52 like 3) | SID56479192
-0.144 | 0.895 | 0.068 | ADCK2 (aarF domain containing kinase 2) | SID56478993
0.842 | 1 | -0.066 | CAMK4 (calcium/calmodulin dependent protein kinase IV) | SID56478933
-0.318 | 0.876 | -0.0816 | PRKAA2 (protein kinase AMP-activated catalytic subunit alpha 2) | SID152151654
0.842 | 1 | 0.0499 | CDK18 (cyclin dependent kinase 18) | SID56478887
-1.63 | 0.737 | -0.102 | ERN1 (endoplasmic reticulum to nucleus signaling 1) | SID135620914
-0.725 | 0.833 | -0.18 | TCF12 (transcription factor 12) | SID134311750
-0.228 | 0.886 | -0.096 | AURKC (aurora kinase C) | SID152150186
-0.237 | 0.885 | -0.0397 | STKLD1 (serine/threonine kinase like domain containing 1) | SID152151495
0.842 | 1 | -0.0302 | NTRK3 (neurotrophic receptor tyrosine kinase 3) | SID135620627
0.842 | 1 | -0.00332 | HCK (HCK proto-oncogene, Src family tyrosine kinase) | SID135620622
-0.261 | 0.882 | 0.0705 | NEK10 (NIMA related kinase 10) | SID56478763
0.842 | 1 | -0.0128 | ANKK1 (ankyrin repeat and kinase domain containing 1) | SID56478922
0.842 | 1 | 0.0868 | DLG4 (discs large MAGUK scaffold protein 4) | SID152149566
-2.34 | 0.662 | -0.11 | PRKAR2B | SID56479179
0.842 | 1 | 0.0446 | CPNE3 (copine 3) | SID134315878
0.842 | 1 | -0.0788 | NME1 (NME/NM23 nucleoside diphosphate kinase 1) | SID56479166
0.827 | 0.998 | 0.0245 | ITPK1 (inositol-tetrakisphosphate 1-kinase) | SID56479109
0.268 | 0.939 | 0.0354 | PIK3CB | SID56478474
0.842 | 1 | -0.0421 | SOS2 (SOS Ras/Rho guanine nucleotide exchange factor 2) | SID152153288
0.636 | 0.978 | 0.171 | CSNK1E (casein kinase 1 epsilon) | SID56478659
0.842 | 1 | -0.0379 | CAMKK1 (calcium/calmodulin dependent protein kinase kinase 1) | SID135620905
0.0521 | 0.916 | 0.0408 | MAP3K1 (mitogen-activated protein kinase kinase kinase 1) | SID152150888
0.842 | 1 | -0.0788 | MAPK8 (mitogen-activated protein kinase 8) | SID135620691
0.307 | 0.943 | -0.1 | CDK11A (cyclin dependent kinase 11A) | SID152154784

Entries listed so far whose target name starts with S or s (4):
viability z-score, no drug | viability, no drug (fraction of control) | synergy score with BYL719 | Gene | PubChem SID
0.00344 | 0.911 | -0.084 | SRP72 (signal recognition particle 72) | SID135623816
0.842 | 1 | -0.0127 | STK3 (serine/threonine kinase 3) | SID152146922
-0.237 | 0.885 | -0.0397 | STKLD1 (serine/threonine kinase like domain containing 1) | SID152151495
0.842 | 1 | -0.0421 | SOS2 (SOS Ras/Rho guanine nucleotide exchange factor 2) | SID152153288
